± gives the standard error. Many of these values have a large error.
B1: glmS ribozyme (parent)
chain: AUAAAAGCGCCAGAACUACAGAAAUGUAGUUGACGAGGAGGAGGUUUAUCGAAUUUUCGGCGGAUGCCUCCAAA

Variants of: B1
Experiment: self-cleavage kobs at 2500 uM GlcN6P; higher = faster cleavage; RNA array
Conditions: with glucosamine-6-phosphate
Outline: (§1)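 Tiles of sequenced MiSeq chips were imaged over ~14 h at 37 °C. On them, barcoded ribozyme variants had been transcribed in situ by E. coli RNA polymerase and were tracked via a hybridised Cy3 probe while glucosamine-6-phosphate (40 μM to 10 mM) in HEPES/KCl/Mg(OAc)2 buffer flowed in. Per-tile medians, normalised to baseline and to non-cleaving reference variants, were fit to one- or two-exponential decays for kobs, and weighted Michaelis–Menten fits gave kcat and KM.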

Variant | self-cleavage kobs at 2500 uM GlcN6P
AUAAAAGCGCUAGAACUACAGAAAUGUAGUUGACGAGGAGGAGGUUUAGCGAAUUUUCGGCGGAUGCCUCCAAA | 1.44e-05 ± 1.3e-05 s⁻¹
AUAAAAGCGCCCGGACUACAGAAAUGUAGUUGACGAGGAGGAGGUUUAUCGAAUUUGCGGCGGAUGCCUGCAAA | 0.00268 ± 0.0017 s⁻¹
AUAAAAGCGCCCGAACUACAGAAAUGUAGUUGACGGGGAGGAGGUUUAUCGAAUUUUCGCCGGAUGCGUACAAA | 6.86e-05 ± 4e-05 s⁻¹
AUAAAAGCGCCCGAACUACAGAAAUGUAGUUGACGAGGAGGAGGUUUCUCGAAUUUUCGGCGGAUGCUUCGAAA | 5.91e-05 ± 3.4e-05 s⁻¹
AUAAAAGCGCCCGAAUUACAGAAAUGUACUUGACGAGGAGGAGGUUUAUCGUAUUUUCGGCGGAUGCCUCCAAA | 4.43e-05 ± 2.6e-05 s⁻¹
AUAAAAGCGCCCUAACUACAGAAAUGUAGUUGACGAGGAGGAGGUUUAUCGAAUUUUCGGCGGAUGUCUCCAAA | 2.82e-05 ± 2.2e-05 s⁻¹
AUAAAAGCGCCCGAACUACAGAAAUGUAGAUGACGAGGAGGAGGUUUAUCGAAUUUUCGGCGGAUGCCGCCAAA | 4.11e-05 ± 2.1e-05 s⁻¹
AUAAAAGCGCCCGAACUACAGAAAUGUAGUUGACGAGGAGGAGGUUUAGCGAAUUUUCGGCGGGUGCCUCCAAA | 2.58e-05 ± 1.4e-05 s⁻¹
AUAAAAGCGCCGCAACUACAGAAAUUUAGUUGACGAGGAGGAGGUUUAUCGAAUUUUCGGCGGAUGCCUCCAAA | 2.15e-05 ± 2e-05 s⁻¹
AUAAAAGCGCCGGAACUACAGAAAUGUAGUUAACGAGGGGGAGGUUUAUCGAAUUUUCGGCGGAUGCCUCCAAA | 5.49e-05 ± 2.8e-05 s⁻¹
AUAAAAGCGCCGGAACUACAGAAAUGUAGUGGACGAGGAGGAGGUUUAUCGAAUUUUAGGCGGAUGCCUCCAAA | 5.81e-05 ± 3.4e-05 s⁻¹
AUAAAAGCGCCUGAUCUACAGAAAUGUAGUUGACGAGGAGGAGGUUUAUCGAAGUUUUGGCGGAUGCCUCCAAA | 9.95e-05 ± 6e-05 s⁻¹
AUAAAAGCGCCUGAACUACAGAAAUGUAGUUGACGAGGAGGGGGUUUAUCGAAUUUUCGGCGGAUGCUUCCAAA | 0.0233 ± 0.02 s⁻¹
AUAAAAGCGCCUGAAAUACAGAAAUGUAGUUGACGAGGAGGAGGUUUAUAGAAUUUUCGGCGGGUGCCUCCAAA | 0.00283 ± 0.0027 s⁻¹
AUAAAAGCGCCUUAACUACAGAAAUGUAGAUGACGAGGAGGAGGUUUAUCGAAUUUUCGGCGGAUGCCUCCAAA | 2.7e-05 ± 1.9e-05 s⁻¹
AUAAAAGCGCCUGAACUACAGAAAUGUAGUUGACGACGAGGAGGUUUAUCGAACUUUCGGCGGAUGCCUCCAAA | 2.91e-05 ± 1.5e-05 s⁻¹
AUAAAAGCGCCUGAACUACAGAAAUGUAGUUGACGAGGAGGAUGUAUAUCGAAUUUUCGGCGGAUGCCUCCAAA | 2.58e-05 ± 2.2e-05 s⁻¹

Individual results from the list:
Value of AUAAAAGCGCCUGAACUACAGAAAUGUAGUUGACGAGGAGGAUGUAUAUCGAAUUUUCGGCGGAUGCCUCCAAA under self-cleavage kobs at 2500 uM GlcN6P: 2.58e-05 ± 2.2e-05 s⁻¹
Value of AUAAAAGCGCCCGAACUACAGAAAUGUAGUUGACGAGGAGGAGGUUUCUCGAAUUUUCGGCGGAUGCUUCGAAA under self-cleavage kobs at 2500 uM GlcN6P: 5.91e-05 ± 3.4e-05 s⁻¹

The results go on.

Variant | self-cleavage kobs at 2500 uM GlcN6P
AUAAAAGCGCCUGAACUACAGAAAUGUAGUUGACGAGGAGGAGGUUUAACGAAUUUUCGGCGGAUGCCUCCAAA | 3.07e-05 ± 1.9e-05 s⁻¹
AUAAAAGCGCCAAGACUACAGAAAUGUACUUGACGAGGAGGAGGUUUAUGGAAUUUUCGGCGGAUGCCUCCAAA | 6.04e-05 ± 3.3e-05 s⁻¹
AUAAAAGCGCCAAAACUACAGAAAUGUAGUUGACGAGGAGGAGGUUUAUCGUAUUUUCGGCGGAUGCCUGCAAA | 3.53e-05 ± 2.5e-05 s⁻¹
AUAAAAGCGCCAAAACUACAGAAAUGUAGUUGACGAGGAGGAGGCUUAUCGAAUUUUCGGCGGAUGCCUCCAAA | 3.37e-05 ± 1.8e-05 s⁻¹
AUAAAAGCGCCAAAACUACAGAAAUGUAGUUGACGAGGAGGAGGUUAAUCGAAUAUUCGGCGGAAGCCUCCAAA | 2.65e-05 ± 1.5e-05 s⁻¹
AUAAAAGCGCCACAACUACAGAAAUGUAGUUGCCGAGGAGGAGGUUUAUCGAAUUUUCGGAGGAUGCCUCCAAA | 0.00162 ± 0.0015 s⁻¹
AUAAAAGCGCCACAACUACAGAAAUGUAGUUGACGAGGAGGAGGUUUAUCGAAUUCUCGGCGGAUGCCUCCAAA | 1.63e-05 ± 1.3e-05 s⁻¹
AUAAAAGCGCCAUAACUACAGAAAUGUAGUUGGCGAGGAGGAGGUUUAUCGAAUUUUCGGCGGAUGCGUCCAAA | 2.34e-05 ± 1.7e-05 s⁻¹
AUAAAAGCGCCAUAACUACAGAAAUGUAGUUGACGAGGAGGAGGUUUAUCGAAUUUUAGGCGGAUGCAUCCAAA | 2.75e-05 ± 2e-05 s⁻¹
AUAAAAGCGCCAUAACUACAGAAAUGUAGUUGACGAGGAGGAGGUUUAUCGAAUUUUCGGCGGAUUCCUCCAAA | 1.47e-05 ± 9.2e-06 s⁻¹
AUAAAAGCGCCAUAACUACAGAAAUGUAGUAGACGAGUAGGAGGUUUAUCGAAUUUUAGGCGGAUGUCUCCAAA | 4.14e-05 ± 2.1e-05 s⁻¹
AUAAAAGCGCCAUAACUACAGAAAUGUAGUGGGCGAUGAGGAGGUUUAUCGAAUUUUCGGCGGAUGCCACCAAA | 2.52e-05 ± 2.3e-05 s⁻¹
AUAAAAGCGCCAUAACUACAGAAAUGUAGUUGACGAGGAGGAGGUUUAUCGAACUUUCGGCGGAUGCCCGCAAA | 0.000561 ± 0.00036 s⁻¹
AUAAAAGCGCCAUAACUACAGAAAUGUAGUUGACGAGGAGGAGGUUUAUCGAAUUUUCGGCGGAUGCCGCCAAA | 2.97e-05 ± 2.7e-05 s⁻¹
AUAAAAGCGCCAGCACUACAGAAAUGUAGUUGUCGAGGAGGAGGUUUAUCGAAUUUUCGGCGGAUGCCUCCAAA | 2.7e-05 ± 1.4e-05 s⁻¹
AUAAAAGCGCCAGGACUACAGAAAUGUAGUUGACGAGGAAGAGGUUUAUCGAUUUUUCGGCGGAUGCCUCCAAA | 0.0136 ± 0.0076 s⁻¹
AUAAAAGCGCCAGGACUACAGAAAUGUAGUAGACGAGGAGGAUGUUAAUCGAAUUUUCGGCGGAUGUCUCCAAA | 3.9e-05 ± 2.8e-05 s⁻¹

Variants of: B1
Experiment: self-cleavage kobs at 10000 uM GlcN6P; higher = faster cleavage; RNA array
Conditions: with glucosamine-6-phosphate
Outline: as §1

Variant | self-cleavage kobs at 10000 uM GlcN6P
AUAAAAGCGCUAGAACUACAGAAAUGUAGUUGACGAGGAGGAGGUUUAGCGAAUUUUCGGCGGAUGCCUCCAAA | 1.23e-05 ± 1e-05 s⁻¹
AUAAAAGCGCCCUAACUACAGAAAUGUAGUUGACGAGGAGGAGGUUUAUCGAAUUUUCGGCGGAUGUCUCCAAA | 2.47e-05 ± 1.6e-05 s⁻¹
AUAAAAGCGCCUGAACUACAGAAAUGUAGUUGACGAGGAGGAGGUUUAACGAAUUUUCGGCGGAUGCCUCCAAA | 3.53e-05 ± 2.4e-05 s⁻¹
